Results are given in words; binding and its absence hold for the method and conditions named. Some binding calls cover weakened binding; strength is not graded here. Each block holds one binder with its values, some of them ahead of it.
What was measured:
[1] = molecular target: recombinant human syndecan-3 (human) (UniProt O75056); test: ELISA, peptide coated, syndecan 1 µg/mL, anti-His detection
[2] = molecular target: recombinant human VEGF-A145 (human) (UniProt P15692); test: ELISA, peptide coated 50 nM, VEGF-A 1 µg/mL
[3] = molecular target: vascular endothelial growth factor (VEGF)-A165 (human) (UniProt P15692); test: ELISA, peptide coated 50 nM, VEGF-A 1 µg/mL
[4] = molecular target: CXCL-12α (human) (UniProt P48061); test: ELISA; vWF A1 HBD peptide coated (10 µg/mL, legend paragraph 67), 1 µg/mL CXCL-12α in solution, detected with anti-CXCL-12 antibody [panel C]
[5] = molecular target: placental growth factor (PlGF)-2 (human) (UniProt P49763); test: ELISA, HBD peptide coated, GF 1 µg/mL
[6] = molecular target: platelet-derived growth factor (PDGF)-BB (human) (UniProt P01127); test: ELISA, HBD peptide coated, GF 1 µg/mL
[7] = molecular target: CXCL-12γ (human) (UniProt P48061); test: ELISA, HBD peptide coated, GF 1 µg/mL
[8] = molecular target: fibroblast growth factor (FGF)-2 (human) (UniProt P09038); test: ELISA, HBD peptide coated, GF 1 µg/mL
[9] = molecular target: vascular endothelial growth factor (VEGF)-A165 (human) (UniProt P15692); test: ELISA, HBD peptide coated, GF 1 µg/mL

The chains behind the UniProt entries cited, without tags or fusion partners. Where a name states a change or a piece, a line headed by the entry shows the natural chain unless it says otherwise. A line that says so, or that is headed by a name, gives the form on record, which may keep a tag or linker. Residues count along the entry.
UniProt O75056, residues 48-387: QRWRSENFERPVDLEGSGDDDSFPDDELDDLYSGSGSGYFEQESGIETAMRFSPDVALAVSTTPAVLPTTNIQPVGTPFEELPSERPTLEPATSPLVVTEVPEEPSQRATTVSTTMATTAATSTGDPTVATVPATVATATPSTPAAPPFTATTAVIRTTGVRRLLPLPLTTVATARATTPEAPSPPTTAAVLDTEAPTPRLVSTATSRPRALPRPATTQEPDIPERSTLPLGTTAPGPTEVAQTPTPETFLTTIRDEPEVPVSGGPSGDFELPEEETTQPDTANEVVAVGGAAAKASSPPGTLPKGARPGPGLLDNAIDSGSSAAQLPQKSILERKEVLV
recombinant human VEGF-A145 (P15692, form named): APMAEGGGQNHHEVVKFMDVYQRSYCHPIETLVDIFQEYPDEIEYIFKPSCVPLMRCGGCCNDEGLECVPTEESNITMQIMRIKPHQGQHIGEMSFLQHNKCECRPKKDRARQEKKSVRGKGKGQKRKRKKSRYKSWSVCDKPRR
vascular endothelial growth factor (VEGF)-A165 (P15692, form named): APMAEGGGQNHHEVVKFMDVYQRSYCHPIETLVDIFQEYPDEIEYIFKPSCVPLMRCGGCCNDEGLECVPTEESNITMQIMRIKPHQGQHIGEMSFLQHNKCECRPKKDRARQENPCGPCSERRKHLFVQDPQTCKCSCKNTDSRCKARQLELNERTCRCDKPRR
CXCL-12α (P48061, residues 22-89): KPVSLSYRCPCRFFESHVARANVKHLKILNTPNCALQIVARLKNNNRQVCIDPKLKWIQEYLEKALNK
CXCL-12γ (P48061, form named): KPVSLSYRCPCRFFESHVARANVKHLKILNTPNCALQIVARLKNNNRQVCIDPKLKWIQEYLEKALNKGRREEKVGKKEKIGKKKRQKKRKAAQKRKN
placental growth factor (PlGF)-2 (P49763, form named): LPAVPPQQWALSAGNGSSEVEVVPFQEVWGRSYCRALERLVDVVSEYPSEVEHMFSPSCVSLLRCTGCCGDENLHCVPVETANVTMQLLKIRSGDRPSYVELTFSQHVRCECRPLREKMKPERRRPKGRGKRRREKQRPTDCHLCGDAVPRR
UniProt P01127, residues 82-190: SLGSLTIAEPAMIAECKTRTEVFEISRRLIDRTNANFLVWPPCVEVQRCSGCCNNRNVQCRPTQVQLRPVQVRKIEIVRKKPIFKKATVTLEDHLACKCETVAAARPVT
UniProt P09038, residues 143-288: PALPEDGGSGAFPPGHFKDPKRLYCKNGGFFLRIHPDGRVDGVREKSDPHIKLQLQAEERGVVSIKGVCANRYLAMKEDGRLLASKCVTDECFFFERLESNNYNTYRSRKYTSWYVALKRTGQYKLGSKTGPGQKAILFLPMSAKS

Binder: TLFLAHGRLVYMFNVGHKKLKIR [laminin α4 1521-1543 peptide (LG4)]
- binding [1]: binds

Binder: RLVFALGTDGKKLRIKSKEKCNDGK [laminin α3 3043-3067 peptide (LG4)]
- binding [1]: binds

Binder: TPGLGPRGLQATARKASRRSRQPARHPACML [laminin α5 3300-3330 peptide (Linker)]
- binding [1]: binds

Binder: PLFLLHKKGKNLSKPKASQNKKGGKSK [laminin α4 1408-1434 peptide (Linker)]
- binding [1]: binds

Other lines, results leading:

- binding [1]: binds
Binder: RQRSRPGRWHKVSVRWEKNR [laminin α5 3417-3436 peptide (LG4)]

- binding [2]: binds
- binding [3]: binds
Binder: YIGLKDRKRPSELRRIASQVKYAC [vWF A1 HBD (24 residues, C-terminal Cys)]

- binding [4]: binds
- binding [5]: binds
- binding [6]: binds
- binding [7]: binds
- binding [8]: binds
- binding [9]: binds
Binder: YIGLKDRKRPSELRRIASQVKYA [vWF A1 HBD peptide (23 residues)]

From patent US20240092867A1
